Results on 65 molecules are retold here after PubChem BioAssay AID493014 (National Center for Advancing Translational Sciences (NCATS), 2011).

The other results are listed elsewhere or left out. The main result of the screen is listed elsewhere. These columns were measured beside it and carry no call. Most of these compounds were active or inconclusive in the main read-out, so they are no random draw. The note in brackets gives the kind of curve behind each potency; many fits are weak.

The nature of the assay: qHTS Assay to Find Inhibitors of Chronic Active B-Cell Receptor Signaling. The settings on record: ABC-DLBCL IkBa-CBG/CBR reporter, luminescence ratio (green luciferase fused to IkBa over red control in TMD8 lymphoma cells), 4 h. A digest of the protocol:
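TMD8 human ABC-DLBCL cells with doxycycline-inducible IκBα–green luciferase fusion and unfused red luciferase, in 0.5% FBS medium; compounds up to 46 uM, 4 h at 37C. Green/red luminescence ratio, filter-overlap corrected, fitted to concentration-response curves.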
Background: In qHTS, concentration-response curves come from the screen itself.

The mark [1] stands for this setting: measured here: CBR red luminescence, cell number.
The mark [2] stands for this setting: measured here: IkBa-CBG green luminescence.

Usually AC50 stands for the midpoint of the concentration-response curve, whichever way the signal moves. With `O=C1c2ccccc2C(=O)c2c1cccc2N(CCO)CCO`, the AC50 under setting [1] was 31.6 µM [rising, single point].

Turning to `COC(=O)c1ccccc1NC(=O)Nc1ccc2c(c1)OCO2`, the AC50 under setting [1] was 13 µM [falling, partial curve]. On to `S=C1N(c2ccccc2)C(c2ccccc2)N2CCCN12` (stereo not drawn), for which the AC50 under setting [1] was 0.164 µM [falling, full curve, poor fit]. Take `COc1ccc2c(c1)c(=O)oc1cc3occ(C(C)(C)C)c3cc12`: the AC50 runs as follows: under setting [1], 29.1 µM [rising, single point]; under setting [2], 16.4 µM [falling, partial curve, poor fit]. Consider `Cc1ccc2cccc(OCC(=O)N3CCc4ccccc43)c2n1`, for which the AC50 under setting [1] is 10 µM [falling, partial curve, poor fit].

`CC(=O)N1CCC(N(CCN2CCOCC2)C(=S)Nc2ccc(C)cc2C)CC1`: the AC50 under setting [1] was 12.6 µM [rising, single point]. On the same count and under the same terms, next, `Cc1cc(C)c(C(=O)CSc2nnc(N)s2)cc1C`: 10 µM [rising, partial curve, poor fit]; `COc1ccccc1NC(=O)Nc1sccc1-c1nc2ccccc2s1`: 0.355 µM [falling, full curve]. For the molecule `COc1cccc(-c2nc3c(c(SCC(=O)N4CCOCC4)n2)Cc2c(CO)cnc(C)c2O3)c1`, the AC50 under setting [1] is 1.12 µM [rising, partial curve, poor fit]. For `Cc1ccc(Nc2nc(-c3ccncc3)cs2)cc1`, the AC50 under setting [1] was 0.126 µM [rising, full curve, poor fit]. As for `Cc1ccccc1C(=O)OC(C)CN1CCN(C)CC1` (stereo not drawn), under setting [1], the AC50 is 3.16 µM [rising, single point]. Turning to `COC(=O)c1ccccc1N1C(=O)C2C(C1=O)[C@H]1C=C[C@@H]2C1` (stereo partly drawn), under setting [1], the AC50 was 29.1 µM [rising, single point]. Take `Cc1cccc(C)c1NC(=O)CN1CCN(CCCC(c2ccc(F)cc2)c2ccc(F)cc2)CC1`: the AC50 under setting [1] is 29.1 µM [falling, single point]. For the molecule `CC(C)N(C(=O)[C@H]1C[C@H](CC(=O)NCCc2ccccn2)C(=O)N2CCc3c([nH]c4cc(CCC(=O)N(C)C)ccc34)[C@]12C)C(C)C`, under setting [1], the AC50 is 23.1 µM [rising, single point]. `O=C(Nc1cccc(Cl)c1)C1CCCN(S(=O)(=O)c2ccc(F)cc2)C1` (stereo not drawn): the AC50 under setting [1] was 29.1 µM [falling, single point]. On to `NC(=S)N/N=C/c1coc2c(ccc3ccccc32)c1=O`, for which the AC50 is, setting by setting: under setting [1], 0.00461 µM [rising, full curve, poor fit]; under setting [2], 0.0206 µM [rising, full curve, poor fit]. As for `O=C(NCc1cccnc1)NC(=O)c1ccc(Cl)cc1`, the AC50 under setting [1] is 0.501 µM [rising, partial curve, poor fit]. Take `Cc1ccn2c(=O)nc(SCC(=O)NCCc3ccccc3)nc2c1`: the AC50 under setting [1] was 0.411 µM [rising, full curve, poor fit].

`O=C(N=C1SC2CS(=O)(=O)CC2N1c1ccc(F)c(Cl)c1)C1CC1` (stereo not drawn): the AC50 under setting [1] was 4.47 µM [falling, full curve, poor fit].

Regarding `O=C(C#Cc1ccccc1)Nc1cccc(F)c1`, under setting [1], the AC50 was 10 µM [falling, partial curve, poor fit].

On to `O=C(COC(=O)c1ccc2c(c1)OCO2)Nc1cccc(F)c1`, for which the AC50 under setting [1] is 4.61 µM [rising, partial curve]. Turning to `Cc1ccc(S(=O)(=O)N2CCN(CCc3ccncc3)CC2)cc1`, the AC50 under setting [1] was 23.1 µM [rising, partial curve, poor fit]. On to `CC(=O)c1cc(F)ccc1OCC(=O)N1CCCc2ccccc21`, for which the AC50 under setting [1] was 28.2 µM [falling, single point]. As to `COCCNC(=O)COc1ccccc1C`, the AC50 under setting [1] was 6.51 µM [rising, single point]. With `O=C1/C(=C\c2ccc(O)c(O)c2)N=C2CCCCCN12`, the AC50 under setting [1] is 35.5 µM [falling, single point]. On to `COc1cccc(Nc2nc(-c3sc(NC(=O)c4ccccc4)nc3C)cs2)c1`, for which the AC50 under setting [1] was 3.98 µM [falling, partial curve, poor fit]. For `c1ccc(CCc2nc(-c3ccncc3)no2)cc1`, the AC50 under setting [1] is 3.66 µM [rising, partial curve, poor fit]. Consider `Cc1c(C=O)c2cc(OCc3ccccc3)ccc2n1C`, for which, under setting [1], the AC50 is 35.5 µM [falling, single point]. The same measure, in the same setting: next, `Cn1ncc2cc(NC(=S)NC(=O)c3ccccc3)ccc21`: 0.251 µM [falling, partial curve, poor fit]; `O=C(c1cccnc1)c1ncc(C(F)(F)F)cc1Cl`: 3.98 µM [rising, full curve]; `COc1cc2ncnc(NCc3ccccc3F)c2cc1OC`: 0.316 µM [falling, full curve]. `COc1ccc(N2C(=O)C3CCCN3C2c2cccc(C)c2)cc1` (stereo not drawn): the AC50 under setting [1] was 29.1 µM [rising, single point].

Consider `O=C(N/N=C/c1ccc(O)c(Br)c1)c1cc2c(ccc3ccccc32)o1`, for which the AC50 under setting [1] is 3.55 µM [falling, full curve]. With `CC1N(O)C(c2ccc(Cl)cc2Cl)N(O)C1(C)C` (stereo not drawn), the AC50 under setting [1] is 12.6 µM [rising, single point]. Regarding `O=C(CC(Nc1ccccc1Cl)C(=O)OCC(=O)c1cccs1)c1ccccc1` (stereo not drawn), under setting [1], the AC50 is 10 µM [rising, partial curve]. In the case of `CCc1nc(NC(=O)c2sc(C)nc2C)sc1C(=O)OC`, the AC50 under setting [1] was 10 µM [falling, partial curve]. On to `Oc1ccccc1/C=N/Nc1nccnc1Cl`, for which, under setting [1], the AC50 is 11.6 µM [falling, partial curve, poor fit]. As to `O=C(C1=C[C@@H](c2ccc(Br)cc2)C[C@@H](OCc2ccc(CO)cc2)O1)N1CCN(Cc2ccc3c(c2)OCO3)CC1`, the AC50 under setting [1] is 15.8 µM [falling, single point].

For the molecule `OCCN(CCO)c1nc(-c2ccccc2)nc2c1oc1ccccc12`, the AC50 under setting [1] was 3.98 µM [falling, partial curve, poor fit].

Turning to `CCn1c(C(=O)N2CCCC(C(=O)O)C2)cc2sccc21` (stereo not drawn), the AC50 under setting [1] was 29.1 µM [rising, single point]. For `O=C(Cc1ccccc1F)Nc1nc(-c2ccc(F)cc2)cs1`, the AC50 under setting [1] was 17.8 µM [falling, single point]. As to `COc1ccc(C(=O)N/N=C/c2ccccc2C(=O)O)cc1OC`, under setting [1], the AC50 is 35.5 µM [falling, single point].

Take `Cc1cnc(NC(=O)C2CCCC2)s1`: the AC50 under setting [1] is 0.562 µM [falling, full curve].

Turning to `CC(C(N)=O)N1C(=O)C2C3C=CC(C3)C2C1=O` (stereo not drawn), under setting [1], the AC50 is 0.58 µM [falling, full curve, poor fit]. On the same count and under the same terms, next, `COc1ccc(CO[C@@H]2O[C@H](CO)[C@@H](O)[C@H](O)[C@H]2NC(C)=O)cc1OC`: 35.5 µM [rising, partial curve, poor fit]. For `CCCC(=O)Nc1ccc(NC(=O)c2ccccc2)nc1`, under setting [1], the AC50 is 8.91 µM [falling, partial curve].

As for `CCOC(=O)c1c(-c2ccccc2)csc1N1C(=O)Nc2ccccc2N1O`, the AC50 under setting [1] is 20 µM [falling, partial curve, poor fit]. Still for that read-out and setting: next, `Cc1nnc(SCC(=O)Nc2ccc(Cl)cn2)[nH]c1=O`: 0.651 µM [falling, full curve, poor fit]. On the same count and under the same terms, for `Cc1ccc(CNC(=O)c2cc(-c3ccc(C)c(C)c3)nc3ccccc23)cc1` the value was 0.794 µM [rising, full curve, poor fit]. For the molecule `COc1cc2c(cc1OC)-c1cc(Nc3cccc(F)c3)nc(=O)n1CC2`, the AC50 under setting [1] is 17.8 µM [rising, single point] and the AC50 under setting [2] is 10 µM [falling, partial curve, poor fit]. On to `Cn1c(SCC(=O)NNC(=O)Nc2ccccc2)nnc1-c1ccccc1`, for which, under setting [1], the AC50 was 31.6 µM [rising, single point]. As to `O=S(Cc1ccccc1)CC(O)(c1ccc(Cl)cc1)c1ccc(Cl)cc1` (stereo not drawn), under setting [1], the AC50 was 28.2 µM [falling, single point]. As for `COc1ccc(CCNC(=O)c2c[nH]c3ccccc3c2=O)cc1OC`, under setting [1], the AC50 is 35.5 µM [falling, single point]. With `COc1ccccc1CCNC(=O)Cn1ccc2cc(S(=O)(=O)N3CCC(C)CC3)ccc21`, under setting [1], the AC50 was 3.16 µM [falling, full curve]. With `COC(=O)c1sc(NC(=S)NC(=O)c2ccccc2Cl)nc1C`, the AC50 under setting [1] is 29.1 µM [falling, single point]. Turning to `CC(=O)Cc1nsc(NC(=O)c2ccc(-c3cc(Cl)ccc3Cl)o2)n1`, the AC50 under setting [1] was 35.5 µM [falling, single point].

Take `NCCCC[C@H]1CNC(=O)C(=O)N1CCc1cccc2ccccc12`: under setting [1], the AC50 was 35.5 µM [rising, single point]. For the molecule `N#Cc1ccc(-c2csc(NC(=O)c3ccc(N4C(=O)CCC4=O)cc3)n2)cc1`, the AC50 under setting [1] was 1.26 µM [falling, full curve, poor fit]. Regarding `CC(=O)c1cccc(NC(=O)c2cccc(NC(=O)c3ccco3)c2)c1`, under setting [1], the AC50 is 3.98 µM [rising, full curve]. `CCOC(=O)c1nc[nH]c1C`: the AC50 under setting [1] is 1.84 µM [falling, partial curve].

For the molecule `CCCCc1cc(=O)oc2c(C)c(OCC(=O)N3CCC(C(=O)O)(c4ccccc4)CC3)ccc12`, the AC50 under setting [1] is 10 µM [falling, partial curve, poor fit]. Still for that read-out and setting: next, `COc1ccc(-c2csc(NC(=O)c3ccco3)n2)cc1`: 0.517 µM [rising, partial curve, poor fit]. Take `CCN1CCN(c2nc(Nc3cccc(OC)c3)nc(N)c2[N+](=O)[O-])CC1`: the AC50 under setting [1] is 11.2 µM [falling, partial curve]. `COc1ccccc1CCn1cnc2c3cc(C)ccc3n(C)c2c1=O`: the AC50 under setting [1] was 0.891 µM [falling, full curve, poor fit]. With `COc1ccc(-c2nc(-c3cccnc3)no2)cc1`, the AC50 under setting [1] was 12.6 µM [falling, single point].
